Data reported in PubChem BioAssay AID887 (National Center for Advancing Translational Sciences (NCATS), 2007).
Among all 74,000 compounds or so, about 1,100 (1.5%) were called active. Listed are the inconclusive results; actives and inactives stand elsewhere. Calls follow the shape of the dose curve; as a rule, active = well fitted inhibition curve with a large enough effect; inconclusive = small, poorly fitted or top-dose-only effect; inactive = no such curve, though single readings can be large or run the other way.

By UniProt entry, the sequences of proteins in these tests, tags left out.
UniProt P16050, whole entry: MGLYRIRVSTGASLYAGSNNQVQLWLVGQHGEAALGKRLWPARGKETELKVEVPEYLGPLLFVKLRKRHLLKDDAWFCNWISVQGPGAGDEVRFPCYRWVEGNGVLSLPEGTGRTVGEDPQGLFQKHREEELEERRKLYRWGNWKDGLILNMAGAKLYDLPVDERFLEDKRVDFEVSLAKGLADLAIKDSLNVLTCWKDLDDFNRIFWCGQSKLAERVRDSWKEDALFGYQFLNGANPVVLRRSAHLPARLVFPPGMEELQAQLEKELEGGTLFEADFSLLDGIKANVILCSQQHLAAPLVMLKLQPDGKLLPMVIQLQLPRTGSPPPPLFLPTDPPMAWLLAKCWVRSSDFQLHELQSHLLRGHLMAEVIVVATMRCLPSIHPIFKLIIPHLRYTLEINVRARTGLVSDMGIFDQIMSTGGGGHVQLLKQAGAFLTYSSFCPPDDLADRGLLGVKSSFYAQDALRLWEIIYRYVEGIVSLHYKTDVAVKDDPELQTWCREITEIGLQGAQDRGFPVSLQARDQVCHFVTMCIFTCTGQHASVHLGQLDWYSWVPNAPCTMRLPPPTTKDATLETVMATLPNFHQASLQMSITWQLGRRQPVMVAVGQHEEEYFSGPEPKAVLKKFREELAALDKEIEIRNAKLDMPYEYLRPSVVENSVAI

molecular target: Polyunsaturated fatty acid lipoxygenase ALOX15 (Homo sapiens) (UniProt P16050); experiment: qHTS Assay for Inhibitors of 15-hLO (15-human lipoxygenase); conditions: purified 15hLO-1, xylenol orange hydroperoxide absorbance; also: nearly all actives have a fitted effect of over 55% in size
Potency is read from the fitted curve at half-maximal effect.

Compound	Potency
NNC(NN)NN.n1nc(-c2nn[nH]n2)n[nH]1	inconclusive: 3.16 µM
